PubChem BioAssay AID686938, Drosophila RNAi Screening Center, 2013
In all, the deposit lists about 23,000 reagents; shown is a random part of those with a known target gene and a result. Of all reagents, 75 (0.33%) were called active. 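Raw plate signals without normalisation; calls rest on plate z-scores that were not deposited; ratio present for only 364 wells.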 Names joined by + are all predicted targets of the reagent. Reagent sequences are not shown. Not stated in the record: the dose of the treatment.

Assay: 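Fly genes required for calcium entry once internal stores are emptied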 (primary screen)
System: Drosophila S2R+ cells
Knock-down reagent: long dsRNA against Drosophila genes, about 0.25 µg dsRNA per well, roughly 10,000 cells
Duration: 5 days of knock-down before the calcium assay
Conditions: thapsigargin (SERCA pump blocker) to empty calcium stores; entry signal taken 4 min after adding it
Read-out: 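Per-well fluo-4 fluorescence in two replicates, unnormalised, measured in resting cells and 4 min after store depletion by the SERCA blocker thapsigargin; ratio of the two present in few wells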
Reading the numbers: calcium entry signal: higher = stronger calcium signal after store depletion; entry to resting ratio: higher = more calcium entry relative to resting level; resting calcium signal: higher = higher resting calcium signal
Hit rule: 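Called when the plate z-score of the entry-to-rest ratio, mean of duplicates, falls below −3; wells with low overall dye signal (Fmax z below −2) or more than five off-targets excluded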
Calls: active = strongly reduced calcium entry; inactive = no strong reduction

gene knocked down | dsRNA | calcium entry signal, replicate 1 (fluorescence units) | calcium entry signal, replicate 2 (fluorescence units) | entry to resting ratio | resting calcium signal, replicate 1 (fluorescence units) | resting calcium signal, replicate 2 (fluorescence units) | outcome
CG13186 | DRSC06311 | 2.16e7 | 3.39e7 | – | 1.10e7 | 1.49e7 | inactive
Cyp9b1 (Cytochrome P450 9b1) | DRSC07389 | 3.94e7 | 4.69e7 | – | 1.91e7 | 2.08e7 | inactive
Cdep (Chondrocyte-derived ezrin-like domain containing protein) | DRSC12028 | 3.63e7 | 3.10e7 | – | 1.75e7 | 1.56e7 | inactive
Cdep (Chondrocyte-derived ezrin-like domain containing protein) | DRSC12220 | 2.71e7 | 2.58e7 | – | 1.60e7 | 1.07e7 | inactive
Cdep (Chondrocyte-derived ezrin-like domain containing protein) | DRSC12291 | 3.21e7 | 6.03e7 | – | 1.61e7 | 2.31e7 | inactive
CG43335 | DRSC15764 | 2.39e7 | 4.95e7 | – | 1.23e7 | 5.81e7 | inactive
CG43335 | DRSC22671 | 3.39e7 | 2.94e7 | – | 1.64e7 | 1.22e7 | inactive
az2 | DRSC07580 | 4.56e7 | – | – | 2.40e7 | – | inactive

Records listed so far whose target name begins with C or c (7):
gene knocked down | dsRNA | calcium entry signal, replicate 1 (fluorescence units) | calcium entry signal, replicate 2 (fluorescence units) | entry to resting ratio | resting calcium signal, replicate 1 (fluorescence units) | resting calcium signal, replicate 2 (fluorescence units) | outcome
CG13186 | DRSC06311 | 2.16e7 | 3.39e7 | – | 1.10e7 | 1.49e7 | inactive
Cyp9b1 (Cytochrome P450 9b1) | DRSC07389 | 3.94e7 | 4.69e7 | – | 1.91e7 | 2.08e7 | inactive
Cdep (Chondrocyte-derived ezrin-like domain containing protein) | DRSC12028 | 3.63e7 | 3.10e7 | – | 1.75e7 | 1.56e7 | inactive
Cdep (Chondrocyte-derived ezrin-like domain containing protein) | DRSC12220 | 2.71e7 | 2.58e7 | – | 1.60e7 | 1.07e7 | inactive
Cdep (Chondrocyte-derived ezrin-like domain containing protein) | DRSC12291 | 3.21e7 | 6.03e7 | – | 1.61e7 | 2.31e7 | inactive
CG43335 | DRSC15764 | 2.39e7 | 4.95e7 | – | 1.23e7 | 5.81e7 | inactive
CG43335 | DRSC22671 | 3.39e7 | 2.94e7 | – | 1.64e7 | 1.22e7 | inactive

Continued:
gene knocked down | dsRNA | calcium entry signal, replicate 1 (fluorescence units) | calcium entry signal, replicate 2 (fluorescence units) | entry to resting ratio | resting calcium signal, replicate 1 (fluorescence units) | resting calcium signal, replicate 2 (fluorescence units) | outcome
pad (poils au dos) | DRSC14227 | 3.61e7 | 5.16e7 | – | 1.85e7 | 7.20e7 | inactive
Lipt2 (Lipoyl(octanoyl) transferase 2) | DRSC12338 | 3.86e7 | 4.38e7 | – | 1.72e7 | 2.38e7 | inactive
Lipt2 (Lipoyl(octanoyl) transferase 2) | DRSC22610 | 3.64e7 | 3.39e7 | – | 2.14e7 | 1.60e7 | inactive
CG14739 | DRSC14959 | 2.26e7 | 2.24e7 | – | 1.22e7 | 1.25e7 | inactive
sev (sevenless) | DRSC20372 | 3.41e7 | 4.56e7 | – | 1.66e7 | 2.08e7 | inactive
CR17438 (pseudo) | DRSC18125 | 3.93e7 | 5.00e7 | – | 1.83e7 | 2.42e7 | inactive
CG12496 | DRSC18602 | 2.34e7 | 3.79e7 | 2 | 1.17e7 | 1.54e7 | inactive
CG32820 + CG17450 + CG32819 | DRSC21803 | 4.20e7 | 3.40e7 | – | 2.36e7 | 1.60e7 | inactive
CG32820 + CG17450 + CG32819 | DRSC22812 | 2.81e7 | 4.25e7 | – | 1.42e7 | 2.27e7 | inactive
CG33181 | DRSC17971 | 3.54e7 | 3.91e7 | – | 1.67e7 | 1.73e7 | inactive
CG33181 | DRSC22376 | 3.33e7 | 6.24e7 | – | 1.76e7 | 3.05e7 | inactive
CheB38b (Chemosensory protein B 38b) | DRSC22874 | 4.89e7 | 3.38e7 | – | 2.36e7 | 1.50e7 | inactive
PH4alphaEFB (prolyl-4-hydroxylase-alpha EFB) | DRSC14473 | 3.23e7 | 4.40e7 | – | 1.55e7 | 1.95e7 | inactive
PH4alphaEFB (prolyl-4-hydroxylase-alpha EFB) | DRSC14950 | 3.61e7 | 4.29e7 | – | 1.90e7 | 1.75e7 | inactive
fws (four way stop) | DRSC02969 | 4.28e7 | – | – | 2.24e7 | – | inactive
CG10252 | DRSC14221 | 3.76e7 | 3.85e7 | – | 1.78e7 | 1.75e7 | inactive
